Data on 5 substances can be found in paper PMC4339892, “Neuropilin 1 is an entry factor that promotes EBV infection of nasopharyngeal epithelial cells” (Nature Communications, 2015).

The chains behind the UniProt entries cited, without tags or fusion partners. Where a name states a change or a piece, a line headed by the entry shows the natural chain unless it says otherwise. A line that says so, or that is headed by a name, gives the form on record, which may keep a tag or linker. Residues count along the entry.
UniProt O14786: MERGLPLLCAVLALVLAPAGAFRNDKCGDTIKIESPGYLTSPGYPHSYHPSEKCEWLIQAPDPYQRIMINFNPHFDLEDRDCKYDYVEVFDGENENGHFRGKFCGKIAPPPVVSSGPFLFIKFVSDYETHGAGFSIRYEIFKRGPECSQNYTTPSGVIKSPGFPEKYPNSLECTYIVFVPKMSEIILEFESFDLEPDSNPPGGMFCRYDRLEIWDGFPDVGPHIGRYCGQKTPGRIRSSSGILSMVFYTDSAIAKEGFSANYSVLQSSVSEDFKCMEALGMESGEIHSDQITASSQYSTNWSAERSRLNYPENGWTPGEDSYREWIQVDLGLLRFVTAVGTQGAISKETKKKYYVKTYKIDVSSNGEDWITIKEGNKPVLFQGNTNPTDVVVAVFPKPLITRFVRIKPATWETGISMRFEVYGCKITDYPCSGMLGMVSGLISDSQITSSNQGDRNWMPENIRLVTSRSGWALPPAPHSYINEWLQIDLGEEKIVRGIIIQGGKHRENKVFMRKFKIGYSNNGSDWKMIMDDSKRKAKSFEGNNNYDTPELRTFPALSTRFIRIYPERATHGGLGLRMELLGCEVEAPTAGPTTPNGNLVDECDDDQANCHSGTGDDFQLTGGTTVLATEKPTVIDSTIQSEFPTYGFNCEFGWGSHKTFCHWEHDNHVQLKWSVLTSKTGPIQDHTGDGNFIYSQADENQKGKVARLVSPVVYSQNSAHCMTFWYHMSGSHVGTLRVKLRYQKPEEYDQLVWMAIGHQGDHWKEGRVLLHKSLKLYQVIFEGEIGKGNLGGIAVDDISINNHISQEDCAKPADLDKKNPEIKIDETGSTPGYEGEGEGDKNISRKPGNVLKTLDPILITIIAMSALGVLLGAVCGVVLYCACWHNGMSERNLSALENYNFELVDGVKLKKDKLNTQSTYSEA
NRP1-EGFP (EGFP-tagged neuropilin 1): residues 22-923 of O14786
soluble NRP1^30–636 (sNRP1^30–636): residues 30-636 of O14786
GST-NRP2^ABC (soluble extracellular ABC domain of NRP2) (O60462-3, form named): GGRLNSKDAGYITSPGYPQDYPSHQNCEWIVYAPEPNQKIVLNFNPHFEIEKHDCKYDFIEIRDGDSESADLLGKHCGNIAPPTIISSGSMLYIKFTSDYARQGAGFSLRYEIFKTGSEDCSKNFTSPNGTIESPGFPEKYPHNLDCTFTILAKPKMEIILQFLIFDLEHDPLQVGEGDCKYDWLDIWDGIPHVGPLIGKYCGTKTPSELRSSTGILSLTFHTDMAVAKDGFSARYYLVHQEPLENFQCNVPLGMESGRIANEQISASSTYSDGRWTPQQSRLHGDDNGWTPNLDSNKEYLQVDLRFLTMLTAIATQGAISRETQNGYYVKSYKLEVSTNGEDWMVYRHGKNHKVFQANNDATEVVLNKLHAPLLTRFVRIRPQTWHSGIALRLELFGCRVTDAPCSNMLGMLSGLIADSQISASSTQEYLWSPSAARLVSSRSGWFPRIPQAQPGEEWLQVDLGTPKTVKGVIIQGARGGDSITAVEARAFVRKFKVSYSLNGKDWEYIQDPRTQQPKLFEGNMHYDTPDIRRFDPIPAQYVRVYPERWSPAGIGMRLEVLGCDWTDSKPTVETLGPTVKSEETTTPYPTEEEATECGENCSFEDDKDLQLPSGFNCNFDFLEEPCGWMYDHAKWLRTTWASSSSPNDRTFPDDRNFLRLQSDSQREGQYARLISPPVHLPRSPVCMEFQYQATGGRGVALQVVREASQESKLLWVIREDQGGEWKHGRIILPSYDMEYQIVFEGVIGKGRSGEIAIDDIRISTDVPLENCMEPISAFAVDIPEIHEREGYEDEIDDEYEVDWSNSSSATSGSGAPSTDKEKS
NRP2 (neuropilin 2) expressed in HEK-293FT cells for the co-immunoprecipitation of Figure 3e (O60462-3, form named): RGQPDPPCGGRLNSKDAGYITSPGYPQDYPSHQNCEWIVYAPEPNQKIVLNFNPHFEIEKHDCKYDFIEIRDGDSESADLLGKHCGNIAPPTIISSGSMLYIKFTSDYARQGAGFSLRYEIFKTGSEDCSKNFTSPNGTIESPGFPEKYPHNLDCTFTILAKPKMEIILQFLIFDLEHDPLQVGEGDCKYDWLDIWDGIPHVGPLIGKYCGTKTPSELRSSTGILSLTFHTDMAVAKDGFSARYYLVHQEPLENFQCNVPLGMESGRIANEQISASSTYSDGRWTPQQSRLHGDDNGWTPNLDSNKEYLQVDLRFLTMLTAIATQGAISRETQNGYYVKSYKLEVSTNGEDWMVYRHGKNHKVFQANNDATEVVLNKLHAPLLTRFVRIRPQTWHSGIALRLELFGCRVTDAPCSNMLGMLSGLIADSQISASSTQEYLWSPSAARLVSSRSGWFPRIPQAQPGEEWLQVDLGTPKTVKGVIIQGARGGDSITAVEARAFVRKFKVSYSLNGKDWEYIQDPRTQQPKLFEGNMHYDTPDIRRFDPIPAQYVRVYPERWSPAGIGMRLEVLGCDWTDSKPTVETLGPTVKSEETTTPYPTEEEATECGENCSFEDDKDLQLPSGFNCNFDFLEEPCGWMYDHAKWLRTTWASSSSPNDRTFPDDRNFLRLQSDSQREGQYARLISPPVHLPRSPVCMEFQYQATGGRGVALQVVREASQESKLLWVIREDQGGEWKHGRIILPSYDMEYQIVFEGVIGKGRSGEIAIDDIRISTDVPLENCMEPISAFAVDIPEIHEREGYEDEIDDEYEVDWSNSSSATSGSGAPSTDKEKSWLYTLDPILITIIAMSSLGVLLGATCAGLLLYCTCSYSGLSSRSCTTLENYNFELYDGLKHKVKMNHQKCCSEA

Assay [1] deals with NRP1-EGFP (EGFP-tagged neuropilin 1) (human) (UniProt O14786). Kind of assay: co-IP; HEK-293FT cells co-transfected with pEGFP-NRP1 and pCEP-FLAG-gB^23–431 for 36 h; RIPA lysate; IP with anti-FLAG or anti-GFP antibody, protein G-Sepharose, immunoblot. (In general: A western blot detects proteins with antibodies after separation by electrophoresis.)
In assay [2] the target is FLAG-gB^23–431 (EBV glycoprotein B residues 23-431, CendR motif exposed) (Epstein-Barr virus) (UniProt P03188). Kind of assay: ELISA; plates coated with 200 ng purified FLAG-gB^23–431, various concentrations of GST-NRP1 or GST-NRP2 for 2 h at RT, rabbit anti-GST and HRP-conjugated secondary antibody; apparent affinity constant; both purified. Background: ELISA stands for enzyme-linked immunosorbent assay.

The target is the same in assay [3]. Kind of assay: co-IP; HEK-293FT cells transfected with the indicated doses of expression vectors (gB, NRP1, NRP2) for 36 h; lysate IP with anti-FLAG, immunoblot with anti-GFP, anti-HA or anti-FLAG.
Assay [4] shares this target. Nature of the assay: co-IP; HEK-293FT cells co-transfected with pEGFP-NRP1 and pCEP-FLAG-gB^23–431 for 36 h; RIPA lysate; IP with anti-FLAG or anti-GFP antibody, protein G-Sepharose, immunoblot.
Assay [5] deals with FLAG-gB^89–427 (gB lacking 23-88 and the CendR motif 428-431) (Epstein-Barr virus) (UniProt P03188). Kind of assay: pull-down; FLAG-gB fragments precipitated from HEK-293FT lysates on anti-FLAG (M2) Sepharose beads, incubated with in vitro translated sNRP1^30-636 overnight at 4 °C, washed in RIPA buffer, immunoblot; only the target purified.
The target of assay [6] is FLAG-gB^23–431 (EBV glycoprotein B residues 23-431, CendR motif exposed) (Epstein-Barr virus) (UniProt P03188). Described as above.
In assay [7] the target is FLAG-gB^23–427 (CendR motif-deletion mutant of gB) (Epstein-Barr virus) (UniProt P03188). The description is as above.

Results are given in words; binding and its absence hold for the method and conditions named. For some assays here: Binding seen in cells or lysates may run through a third protein. Some entries that bind do so weakly or less than the wild type.

Take “FLAG-gB^23–431 (EBV glycoprotein B residues 23-431, CendR motif exposed) (from UniProt P03188 23-431) (domain or fragment)”: the binding entry in assay [1] was “binds”. As to “GST-NRP2^ABC (soluble extracellular ABC domain of NRP2) (from UniProt O60462-3 29-852) (domain or fragment)”, the binding result in assay [2] was “binds”.

For “NRP1-EGFP (EGFP-tagged neuropilin 1) (from UniProt O14786-1 22-923) (receptor)”, the binding result in assay [3] and in assay [4] was “binds” in each case.

Turning to “NRP2 (neuropilin 2) expressed in HEK-293FT cells for the co-immunoprecipitation of Figure 3e (from UniProt O60462-3 21-926) (receptor)”, the binding entry in assay [3] was “binds”.

“soluble NRP1^30–636 (sNRP1^30–636) (from UniProt O14786-1 30-636) (domain or fragment)”: the binding result in assay [5] is “binds weakly”; in assay [6], “binds”; in assay [7], “binds”.
